PubChem BioAssay AID504804 – Drosophila RNAi Screening Center | 2011
The deposit covers about 19,000 reagents; this is an unselected part of those with a known target gene and a result. In the full data, 47 (0.25%) are marked active. 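Signals are raw, not normalised; exact z-scores behind calls not deposited; actives needed confirmation, so some wells reaching 2 SD are inactive.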 Reagents against one gene are numbered here. A plus sign joins genes that one reagent is predicted to hit. Reagent sequences are not shown.

- Aim: 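Fly genes whose loss lessens doxorubicin-driven cell death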 (primary screen)
- System: Drosophila Kc cells
- Reagent: long dsRNA against Drosophila genes, 0.5 µg dsRNA per well
- Duration: 96 h (48 h knock-down, then 48 h drug)
- Treatment: doxorubicin 5 µg/ml for 48 h, added 48 h after dsRNA
- Detection: 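Viability measured as cellular ATP by luminescence after 48 h knock-down then 48 h doxorubicin at 5 µg/ml; unnormalised plate counts for each replicate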
- Reading the numbers: raw ATP luminescence: higher = more viable cells, protection from doxorubicin
- Call rule: 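Active when both duplicate wells lie at least 2 SD above the plate mean and protection is confirmed by rescreening and independent dsRNAs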

{"gene": "Tim17a1", "reagent": 1, "raw ATP luminescence, replicate 1": 58610, "raw ATP luminescence, replicate 2": 46170, "activity call": "inactive"}
{"gene": "Ance-2", "reagent": 1, "raw ATP luminescence, replicate 1": 85883, "raw ATP luminescence, replicate 2": 81603, "activity call": "inactive"}
{"gene": "CG12299", "reagent": 1, "raw ATP luminescence, replicate 1": 56263, "raw ATP luminescence, replicate 2": 25837, "activity call": "inactive"}
{"gene": "rau", "reagent": 1, "raw ATP luminescence, replicate 1": 1.06e5, "raw ATP luminescence, replicate 2": 74370, "activity call": "inactive"}
{"gene": "CG33251 (retired record) + CG9915", "reagent": 1, "raw ATP luminescence, replicate 1": 2.96e5, "raw ATP luminescence, replicate 2": 2.99e5, "activity call": "inactive"}
{"gene": "Or67b (Odorant receptor 67b)", "reagent": 1, "raw ATP luminescence, replicate 1": 86710, "raw ATP luminescence, replicate 2": 73847, "activity call": "inactive"}
{"gene": "CG1137", "reagent": 1, "raw ATP luminescence, replicate 1": 63437, "raw ATP luminescence, replicate 2": 64907, "activity call": "inactive"}
{"gene": "Grx3 (Glutaredoxin 3)", "reagent": 1, "raw ATP luminescence, replicate 1": 1.03e5, "raw ATP luminescence, replicate 2": 61317, "activity call": "inactive"}
{"gene": "fid (fire dancer)", "reagent": 1, "raw ATP luminescence, replicate 1": 84970, "raw ATP luminescence, replicate 2": 67620, "activity call": "inactive"}
{"gene": "fid (fire dancer)", "reagent": 2, "raw ATP luminescence, replicate 1": 81770, "raw ATP luminescence, replicate 2": 70730, "activity call": "inactive"}
{"gene": "Gbeta5 (G protein beta subunit 5)", "reagent": 1, "raw ATP luminescence, replicate 1": 36280, "raw ATP luminescence, replicate 2": 45150, "activity call": "inactive"}
{"gene": "Spn77Bb + Spn77Bc", "reagent": 1, "raw ATP luminescence, replicate 1": 67487, "raw ATP luminescence, replicate 2": 66510, "activity call": "inactive"}
{"gene": "Spn77Bb + Spn77Bc", "reagent": 2, "raw ATP luminescence, replicate 1": 65057, "raw ATP luminescence, replicate 2": 66470, "activity call": "inactive"}
{"gene": "Ama (Amalgam)", "reagent": 1, "raw ATP luminescence, replicate 1": 44737, "raw ATP luminescence, replicate 2": 22410, "activity call": "inactive"}
{"gene": "Xpac (Xeroderma pigmentosum group A-like)", "reagent": 1, "raw ATP luminescence, replicate 1": 48130, "raw ATP luminescence, replicate 2": 43580, "activity call": "inactive"}
{"gene": "CG32547", "reagent": 1, "raw ATP luminescence, replicate 1": 2.80e5, "raw ATP luminescence, replicate 2": 2.59e5, "activity call": "inactive"}
{"gene": "CG32547", "reagent": 2, "raw ATP luminescence, replicate 1": 2.62e5, "raw ATP luminescence, replicate 2": 2.56e5, "activity call": "inactive"}
{"gene": "CG32547", "reagent": 3, "raw ATP luminescence, replicate 1": 3.18e5, "raw ATP luminescence, replicate 2": 3.69e5, "activity call": "inactive"}
{"gene": "CG32547", "reagent": 4, "raw ATP luminescence, replicate 1": 4.35e5, "raw ATP luminescence, replicate 2": 3.68e5, "activity call": "inactive"}
{"gene": "CG4210", "reagent": 1, "raw ATP luminescence, replicate 1": 66490, "raw ATP luminescence, replicate 2": 67650, "activity call": "inactive"}
{"gene": "mtm (myotubularin)", "reagent": 1, "raw ATP luminescence, replicate 1": 96970, "raw ATP luminescence, replicate 2": 53533, "activity call": "inactive"}
{"gene": "Ube3a (Ubiquitin protein ligase E3A)", "reagent": 1, "raw ATP luminescence, replicate 1": 36370, "raw ATP luminescence, replicate 2": 43900, "activity call": "inactive"}
{"gene": "CG13609", "reagent": 1, "SD above plate mean": "at least 2 SD above plate mean", "raw ATP luminescence, replicate 1": 1.03e5, "raw ATP luminescence, replicate 2": 1.01e5, "activity call": "inactive"}
{"gene": "CG14722", "reagent": 1, "raw ATP luminescence, replicate 1": 66223, "raw ATP luminescence, replicate 2": 30777, "activity call": "inactive"}
{"gene": "CG32591", "reagent": 1, "raw ATP luminescence, replicate 1": 1.87e5, "raw ATP luminescence, replicate 2": 1.82e5, "activity call": "inactive"}
{"gene": "Dic1", "reagent": 1, "raw ATP luminescence, replicate 1": 53003, "raw ATP luminescence, replicate 2": 26213, "activity call": "inactive"}
{"gene": "Adgf-A2 (Adenosine deaminase-related growth factor A2)", "reagent": 1, "raw ATP luminescence, replicate 1": 88487, "raw ATP luminescence, replicate 2": 80773, "activity call": "inactive"}
{"gene": "CG6550", "reagent": 1, "raw ATP luminescence, replicate 1": 65130, "raw ATP luminescence, replicate 2": 35100, "activity call": "inactive"}

A few values from the list.
Adgf-A2 (Adenosine deaminase-related growth factor A2), raw ATP luminescence, replicate 2 = 80773
Under “raw ATP luminescence, replicate 1”, Spn77Bb + Spn77Bc #1 has 67487
Under “raw ATP luminescence, replicate 2”, Tim17a1 has 46170
